The source of these data is paper PMC5928194.

The chains behind the UniProt entries cited, without tags or fusion partners.
UniProt Q9Y530: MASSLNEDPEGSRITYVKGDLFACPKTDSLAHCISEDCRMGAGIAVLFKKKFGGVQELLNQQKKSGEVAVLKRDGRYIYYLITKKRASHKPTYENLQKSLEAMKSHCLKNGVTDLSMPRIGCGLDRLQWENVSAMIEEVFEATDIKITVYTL
UniProt P12956: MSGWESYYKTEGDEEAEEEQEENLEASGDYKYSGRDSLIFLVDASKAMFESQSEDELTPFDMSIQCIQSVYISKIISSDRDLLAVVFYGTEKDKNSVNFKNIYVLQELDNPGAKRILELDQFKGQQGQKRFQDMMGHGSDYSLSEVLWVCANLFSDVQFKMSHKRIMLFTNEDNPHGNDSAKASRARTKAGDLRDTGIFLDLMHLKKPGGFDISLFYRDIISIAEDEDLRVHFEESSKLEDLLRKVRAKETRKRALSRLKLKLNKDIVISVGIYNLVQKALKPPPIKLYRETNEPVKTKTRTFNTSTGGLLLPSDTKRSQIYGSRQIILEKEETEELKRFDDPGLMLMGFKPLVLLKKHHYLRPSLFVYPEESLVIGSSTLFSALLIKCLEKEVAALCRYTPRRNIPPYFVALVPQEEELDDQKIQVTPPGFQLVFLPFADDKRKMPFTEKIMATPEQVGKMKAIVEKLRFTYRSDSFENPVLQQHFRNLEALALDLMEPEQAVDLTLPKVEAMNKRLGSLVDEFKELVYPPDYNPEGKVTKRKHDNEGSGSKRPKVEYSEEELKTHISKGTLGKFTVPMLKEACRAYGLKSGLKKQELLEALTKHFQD
UniProt Q7Z2W4: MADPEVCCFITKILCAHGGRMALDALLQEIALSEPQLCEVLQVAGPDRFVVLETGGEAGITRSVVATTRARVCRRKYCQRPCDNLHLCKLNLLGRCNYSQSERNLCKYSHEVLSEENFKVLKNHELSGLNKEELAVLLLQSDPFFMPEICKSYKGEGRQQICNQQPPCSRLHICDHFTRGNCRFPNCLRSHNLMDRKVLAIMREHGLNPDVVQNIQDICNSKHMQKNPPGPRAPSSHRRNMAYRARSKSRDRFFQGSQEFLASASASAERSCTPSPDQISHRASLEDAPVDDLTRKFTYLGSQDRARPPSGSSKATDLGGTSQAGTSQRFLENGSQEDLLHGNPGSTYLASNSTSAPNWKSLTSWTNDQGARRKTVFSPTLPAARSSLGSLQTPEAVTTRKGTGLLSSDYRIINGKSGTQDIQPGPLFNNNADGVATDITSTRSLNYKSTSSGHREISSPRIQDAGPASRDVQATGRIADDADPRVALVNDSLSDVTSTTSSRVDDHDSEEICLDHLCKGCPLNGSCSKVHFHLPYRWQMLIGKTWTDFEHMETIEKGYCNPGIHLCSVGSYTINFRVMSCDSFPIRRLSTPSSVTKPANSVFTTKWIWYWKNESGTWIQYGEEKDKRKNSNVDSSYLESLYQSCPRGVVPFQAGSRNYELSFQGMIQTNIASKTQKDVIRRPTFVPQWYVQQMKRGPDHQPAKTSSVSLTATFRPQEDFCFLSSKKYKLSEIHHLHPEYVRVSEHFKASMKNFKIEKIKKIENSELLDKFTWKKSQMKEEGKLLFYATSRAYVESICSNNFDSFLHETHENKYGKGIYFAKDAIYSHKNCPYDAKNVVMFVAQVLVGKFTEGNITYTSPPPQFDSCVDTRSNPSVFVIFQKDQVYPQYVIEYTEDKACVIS
UniProt P35250: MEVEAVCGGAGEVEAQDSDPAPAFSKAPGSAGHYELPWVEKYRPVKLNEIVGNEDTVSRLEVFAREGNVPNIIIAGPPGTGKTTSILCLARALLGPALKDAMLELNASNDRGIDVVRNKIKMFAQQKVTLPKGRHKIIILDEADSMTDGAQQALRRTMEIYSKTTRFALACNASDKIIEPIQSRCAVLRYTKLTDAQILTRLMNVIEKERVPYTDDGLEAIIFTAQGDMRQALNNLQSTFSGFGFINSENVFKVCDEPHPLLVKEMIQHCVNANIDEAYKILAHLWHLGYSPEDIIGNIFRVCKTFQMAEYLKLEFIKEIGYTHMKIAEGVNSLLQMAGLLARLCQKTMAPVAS
UniProt Q9Y5B9: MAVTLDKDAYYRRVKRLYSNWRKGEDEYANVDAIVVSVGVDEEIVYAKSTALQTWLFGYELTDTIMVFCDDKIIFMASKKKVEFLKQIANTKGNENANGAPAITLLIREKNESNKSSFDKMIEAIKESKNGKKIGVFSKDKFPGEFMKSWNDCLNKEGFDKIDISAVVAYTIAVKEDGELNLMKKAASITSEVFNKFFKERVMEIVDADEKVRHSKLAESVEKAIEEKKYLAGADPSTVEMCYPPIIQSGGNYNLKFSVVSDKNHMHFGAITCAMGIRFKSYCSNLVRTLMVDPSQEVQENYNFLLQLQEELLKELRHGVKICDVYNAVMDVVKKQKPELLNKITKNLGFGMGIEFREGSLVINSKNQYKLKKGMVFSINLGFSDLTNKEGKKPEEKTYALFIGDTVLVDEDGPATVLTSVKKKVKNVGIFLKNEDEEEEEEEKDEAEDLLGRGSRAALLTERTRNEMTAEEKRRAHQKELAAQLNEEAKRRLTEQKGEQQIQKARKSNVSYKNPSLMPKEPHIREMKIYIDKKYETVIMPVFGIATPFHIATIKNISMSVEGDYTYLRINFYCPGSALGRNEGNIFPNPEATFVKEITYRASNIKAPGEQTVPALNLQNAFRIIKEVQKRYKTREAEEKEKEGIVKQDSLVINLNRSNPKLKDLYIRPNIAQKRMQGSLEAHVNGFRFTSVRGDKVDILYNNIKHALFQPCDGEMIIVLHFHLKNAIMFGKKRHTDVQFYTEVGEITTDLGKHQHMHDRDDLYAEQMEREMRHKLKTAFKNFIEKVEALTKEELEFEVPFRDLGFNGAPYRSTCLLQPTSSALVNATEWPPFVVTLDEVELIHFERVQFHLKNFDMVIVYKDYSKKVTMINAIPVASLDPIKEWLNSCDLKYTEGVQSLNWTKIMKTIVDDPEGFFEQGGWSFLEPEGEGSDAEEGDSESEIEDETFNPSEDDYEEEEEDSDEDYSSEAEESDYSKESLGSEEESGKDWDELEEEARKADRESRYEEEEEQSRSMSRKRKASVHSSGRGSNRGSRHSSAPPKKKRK
UniProt P09874: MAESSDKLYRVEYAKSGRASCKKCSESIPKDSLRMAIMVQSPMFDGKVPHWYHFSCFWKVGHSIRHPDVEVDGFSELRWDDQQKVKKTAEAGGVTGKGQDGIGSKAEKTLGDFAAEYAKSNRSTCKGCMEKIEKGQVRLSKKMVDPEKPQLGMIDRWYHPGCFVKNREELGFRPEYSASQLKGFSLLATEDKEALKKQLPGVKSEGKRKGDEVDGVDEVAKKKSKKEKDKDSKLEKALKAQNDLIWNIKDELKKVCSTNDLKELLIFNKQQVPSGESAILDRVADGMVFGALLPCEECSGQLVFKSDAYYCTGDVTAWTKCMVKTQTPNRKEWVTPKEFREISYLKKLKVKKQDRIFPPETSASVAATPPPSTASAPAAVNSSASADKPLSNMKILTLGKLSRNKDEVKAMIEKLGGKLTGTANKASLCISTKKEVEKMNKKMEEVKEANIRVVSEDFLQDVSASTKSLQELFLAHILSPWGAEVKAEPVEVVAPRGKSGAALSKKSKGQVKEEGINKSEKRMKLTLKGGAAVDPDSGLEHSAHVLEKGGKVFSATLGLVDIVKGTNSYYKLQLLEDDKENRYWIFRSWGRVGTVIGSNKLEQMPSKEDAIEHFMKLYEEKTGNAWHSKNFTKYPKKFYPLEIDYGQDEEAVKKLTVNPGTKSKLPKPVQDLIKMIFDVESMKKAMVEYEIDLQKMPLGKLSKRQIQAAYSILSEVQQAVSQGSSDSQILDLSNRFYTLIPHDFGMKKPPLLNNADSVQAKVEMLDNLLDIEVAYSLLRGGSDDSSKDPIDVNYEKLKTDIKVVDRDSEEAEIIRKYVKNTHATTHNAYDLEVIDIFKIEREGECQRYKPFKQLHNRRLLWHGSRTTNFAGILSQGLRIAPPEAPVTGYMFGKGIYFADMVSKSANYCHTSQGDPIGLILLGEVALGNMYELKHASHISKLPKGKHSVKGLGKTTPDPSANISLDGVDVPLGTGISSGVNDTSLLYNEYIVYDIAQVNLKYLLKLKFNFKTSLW

Results are given in words; binding and its absence hold for the method and conditions named. In cells and extracts the contact can be indirect. These calls come from enrichment with a bait or labelling near it, and not all partners need be listed.

For test [1], the target named is TAP-tagged TARG1 (human) (UniProt Q9Y530). As to the kind of experiment: affinity purification with mass spectrometry; tandem affinity purification of TAP-TARG1 (IgG Sepharose, TEV cleavage, Calmodulin Sepharose) from HEK293 Flp-In T-REx lysate; lysis buffer 50 mM Tris pH 7.5, 150 mM NaCl, 1% Nonidet P-40, without olaparib (ARTD1/2 activated and PAR formed during lysis); 4 °C; LC-MS/MS, label-free quantitation over the TAP-tag control.

The target is the same in test [2]. Nature of the test: affinity purification with mass spectrometry; tandem affinity purification of TAP-TARG1 as in a1, but with 10 µM olaparib in the lysis buffer (ARTD1/2 inhibited); LC-MS/MS, label-free quantitation over the TAP-tag control.

Consider XRCC6 (from UniProt P12956 1-609), for which the binding entry with TAP-tagged TARG1 (human) [1] is “binds”. PRKDC (from UniProt P78527 1-4128): the binding result with TAP-tagged TARG1 (human) [1] was “binds”.

On to ARTD13 (from UniProt Q7Z2W4 1-902), for which, in the test with TAP-tagged TARG1 (human) [2], the binding result was “binds”. In the case of “RFC2 (replication factor C subunit 2) (from UniProt P35250 1-354)”, the binding entry with TAP-tagged TARG1 (human) [2] and in the test with TAP-tagged TARG1 (human) [1] was “binds” in each case. On to SUPT16H (from UniProt Q9Y5B9 1-1047), for which the binding entry with TAP-tagged TARG1 (human) [1] was “binds”. For ARTD1 (from UniProt P09874 1-1014), the binding entry with TAP-tagged TARG1 (human) [2] is given as “binds weakly”; with TAP-tagged TARG1 (human) [1] it was “binds”.

B1: LIG3 (protein, UniProt P49916 43-1009)
chain: LLHGHPLFLRRKPVLSFQGSHLRSRATYLVFLPGLHVGLCSGPCEMAEQRFCVDYAKRGTAGCKKCKEKIVKGVCRIGKVVPNPFSESGGDMKEWYHIKCMFEKLERARATTKKIEDLTELEGWEELEDNEKEQITQHIADLSSKAAGTPKKKAVVQAKLTTTGQVTSPVKGASFVTSTNPRKFSGFSAKPNNSGEAPSSPTPKRSLSSSKCDPRHKDCLLREFRKLCAMVADNPSYNTKTQIIQDFLRKGSAGDGFHGDVYLTVKLLLPGVIKTVYNLNDKQIVKLFSRIFNCNPDDMARDLEQGDVSETIRVFFEQSKSFPPAAKSLLTIQEVDEFLLRLSKLTKEDEQQQALQDIASRCTANDLKCIIRLIKHDLKMNSGAKHVLDALDPNAYEAFKASRNLQDVVERVLHNAQEVEKEPGQRRALSVQASLMTPVQPMLAEACKSVEYAMKKCPNGMFSEIKYDGERVQVHKNGDHFSYFSRSLKPVLPHKVAHFKDYIPQAFPGGHSMILDSEVLLIDNKTGKPLPFGTLGVHKKAAFQDANVCLFVFDCIYFNDVSLMDRPLCERRKFLHDNMVEIPNRIMFSEMKRVTKALDLADMITRVIQEGLEGLVLKDVKGTYEPGKRHWLKVKKDYLNEGAMADTADLVVLGAFYGQGSKGGMMSIFLMGCYDPGSQKWCTVTKCAGGHDDATLARLQNELDMVKISKDPSKIPSWLKVNKIYYPDFIVPDPKKAAVWEITGAEFSKSEAHTADGISIRFPRCTRIRDDKDWKSATNLPQLKELYQLSKEKADFTVVAGDEGSSTTGGSSEENKGPSGSAVSRKAPSKPSASTKKAEGKLSNSNSKDGNMQTAKPSAMKVGEKLATKSSPVKVGEKRKAADETLCQTKVLLDIFTGVRLYLPPSTPDFSRLRRYFVAFDGDLVQEFDMTSATHVLGSRDKNPAAQQVSPEWIWACIRKRRLVAPC
With B1, the binding entry with TAP-tagged TARG1 (human) [1] was “binds”.
